These are yes or no findings as the source states them, for the method shown. Binding seen in cells or lysates may run through a third protein. These calls come from enrichment with a bait or labelling near it, and not all partners need be listed.
Target: HER3 (human (endogenous in BT474 and MDA-MB-453)) (UniProt P21860)
Assay: affinity purification with mass spectrometry; BT474 cells treated with DMSO or 500 nM neratinib for 24 h; HER3 immunoprecipitated from lysate; silver-stained gel bands excised, digested with trypsin, MALDI TOF-TOF, MASCOT search

The chains behind the UniProt entries cited, without tags or fusion partners. Residues count along the entry.
UniProt P21860, residues 20-1342: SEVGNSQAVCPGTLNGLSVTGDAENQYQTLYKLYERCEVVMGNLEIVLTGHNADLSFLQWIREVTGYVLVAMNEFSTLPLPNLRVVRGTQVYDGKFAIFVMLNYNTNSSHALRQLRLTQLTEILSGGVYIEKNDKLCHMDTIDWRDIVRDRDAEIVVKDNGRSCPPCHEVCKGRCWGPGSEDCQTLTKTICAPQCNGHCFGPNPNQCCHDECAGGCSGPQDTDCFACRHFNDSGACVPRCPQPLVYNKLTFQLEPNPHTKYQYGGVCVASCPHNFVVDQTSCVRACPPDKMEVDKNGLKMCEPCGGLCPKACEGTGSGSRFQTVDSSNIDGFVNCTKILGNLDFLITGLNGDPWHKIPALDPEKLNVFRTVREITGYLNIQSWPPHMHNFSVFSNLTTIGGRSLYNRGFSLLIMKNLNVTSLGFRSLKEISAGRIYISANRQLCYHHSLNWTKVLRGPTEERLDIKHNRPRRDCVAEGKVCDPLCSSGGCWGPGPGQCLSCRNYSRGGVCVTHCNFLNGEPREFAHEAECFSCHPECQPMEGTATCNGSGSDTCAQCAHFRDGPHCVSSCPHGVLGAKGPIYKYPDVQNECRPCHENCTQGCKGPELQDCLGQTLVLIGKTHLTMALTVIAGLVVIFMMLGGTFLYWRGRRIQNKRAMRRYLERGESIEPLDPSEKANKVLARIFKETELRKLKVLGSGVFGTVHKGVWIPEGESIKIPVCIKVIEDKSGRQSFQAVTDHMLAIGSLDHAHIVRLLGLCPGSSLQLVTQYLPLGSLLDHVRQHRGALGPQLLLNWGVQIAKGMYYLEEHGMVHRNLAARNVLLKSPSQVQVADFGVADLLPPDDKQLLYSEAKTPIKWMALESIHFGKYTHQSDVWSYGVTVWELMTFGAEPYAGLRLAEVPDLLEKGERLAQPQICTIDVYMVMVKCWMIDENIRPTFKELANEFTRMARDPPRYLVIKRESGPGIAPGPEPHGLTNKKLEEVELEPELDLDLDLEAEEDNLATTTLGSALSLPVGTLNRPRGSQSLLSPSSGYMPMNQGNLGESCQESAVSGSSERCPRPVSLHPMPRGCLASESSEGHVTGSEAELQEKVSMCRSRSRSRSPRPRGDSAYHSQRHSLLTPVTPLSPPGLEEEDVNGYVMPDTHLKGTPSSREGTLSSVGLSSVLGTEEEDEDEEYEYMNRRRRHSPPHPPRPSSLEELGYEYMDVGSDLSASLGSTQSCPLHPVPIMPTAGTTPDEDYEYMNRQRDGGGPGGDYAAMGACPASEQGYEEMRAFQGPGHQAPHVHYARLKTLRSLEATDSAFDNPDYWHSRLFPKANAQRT
UniProt P35579: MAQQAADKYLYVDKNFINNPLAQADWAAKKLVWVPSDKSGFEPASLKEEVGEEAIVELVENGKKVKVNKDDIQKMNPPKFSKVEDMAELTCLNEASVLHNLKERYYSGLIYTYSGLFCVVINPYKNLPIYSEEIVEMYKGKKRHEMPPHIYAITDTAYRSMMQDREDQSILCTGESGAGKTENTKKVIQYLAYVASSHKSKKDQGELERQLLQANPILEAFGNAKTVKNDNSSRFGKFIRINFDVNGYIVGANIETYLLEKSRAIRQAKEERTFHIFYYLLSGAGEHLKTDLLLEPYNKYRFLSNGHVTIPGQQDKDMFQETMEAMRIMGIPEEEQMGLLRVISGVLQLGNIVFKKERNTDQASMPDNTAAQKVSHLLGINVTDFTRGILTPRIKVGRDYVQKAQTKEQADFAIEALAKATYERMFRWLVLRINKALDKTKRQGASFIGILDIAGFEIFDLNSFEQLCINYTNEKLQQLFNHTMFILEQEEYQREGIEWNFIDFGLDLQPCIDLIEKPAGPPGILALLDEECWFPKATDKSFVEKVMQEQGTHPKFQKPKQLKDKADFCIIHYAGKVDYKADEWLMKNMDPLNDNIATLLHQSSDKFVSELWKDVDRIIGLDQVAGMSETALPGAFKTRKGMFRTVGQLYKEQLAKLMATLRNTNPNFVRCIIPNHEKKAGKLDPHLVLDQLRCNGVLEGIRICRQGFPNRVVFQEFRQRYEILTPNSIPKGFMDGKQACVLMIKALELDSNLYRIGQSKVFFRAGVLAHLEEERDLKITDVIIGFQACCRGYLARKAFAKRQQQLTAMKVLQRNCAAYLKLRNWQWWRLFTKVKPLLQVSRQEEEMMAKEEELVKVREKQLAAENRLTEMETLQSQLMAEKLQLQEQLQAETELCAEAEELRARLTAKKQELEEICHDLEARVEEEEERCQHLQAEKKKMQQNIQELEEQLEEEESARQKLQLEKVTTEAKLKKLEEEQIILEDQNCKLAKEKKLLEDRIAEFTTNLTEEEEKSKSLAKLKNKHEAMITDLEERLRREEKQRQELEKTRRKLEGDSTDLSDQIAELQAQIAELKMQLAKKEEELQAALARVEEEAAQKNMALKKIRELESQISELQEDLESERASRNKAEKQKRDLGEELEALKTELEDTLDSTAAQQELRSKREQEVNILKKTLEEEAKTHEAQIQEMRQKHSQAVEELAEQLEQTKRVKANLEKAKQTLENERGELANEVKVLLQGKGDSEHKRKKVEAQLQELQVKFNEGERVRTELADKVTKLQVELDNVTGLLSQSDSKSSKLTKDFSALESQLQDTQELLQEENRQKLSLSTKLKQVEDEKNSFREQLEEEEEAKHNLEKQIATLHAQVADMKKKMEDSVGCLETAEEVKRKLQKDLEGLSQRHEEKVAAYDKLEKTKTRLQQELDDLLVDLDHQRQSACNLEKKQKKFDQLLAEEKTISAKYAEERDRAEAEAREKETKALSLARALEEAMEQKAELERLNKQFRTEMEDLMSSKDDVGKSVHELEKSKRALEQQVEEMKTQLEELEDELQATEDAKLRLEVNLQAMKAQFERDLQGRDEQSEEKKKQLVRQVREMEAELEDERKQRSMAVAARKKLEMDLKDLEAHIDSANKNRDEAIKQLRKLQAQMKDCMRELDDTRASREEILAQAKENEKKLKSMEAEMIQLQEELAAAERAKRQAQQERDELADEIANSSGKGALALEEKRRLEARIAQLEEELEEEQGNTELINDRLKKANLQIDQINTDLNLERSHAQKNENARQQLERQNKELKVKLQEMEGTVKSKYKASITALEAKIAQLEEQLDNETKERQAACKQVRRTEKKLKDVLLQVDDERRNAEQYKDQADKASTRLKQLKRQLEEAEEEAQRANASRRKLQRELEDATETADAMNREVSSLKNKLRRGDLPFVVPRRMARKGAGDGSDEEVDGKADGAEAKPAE

- binding: binds
Substance: non-muscle myosin IIA (from UniProt P35579 1-1960)

Source: paper PMC10194889
